IC50 data for one molecule are collected here from US20140155445A1, “Compounds and Methods for Treating Cancer and Diseases of the Central Nervous System” (Osta Biotechnologies Inc., priority 2007, published 2014).

The target in this assay is T1, HO-1 (rat spleen) (Rattus norvegicus, UniProt P06762).
T1 construct: Spleen microsomes were used as a source of HO-1; from tissue; host or cells: spleen microsomal fraction of adult male Sprague-Dawley rats
T1 sequence (P06762 1-289): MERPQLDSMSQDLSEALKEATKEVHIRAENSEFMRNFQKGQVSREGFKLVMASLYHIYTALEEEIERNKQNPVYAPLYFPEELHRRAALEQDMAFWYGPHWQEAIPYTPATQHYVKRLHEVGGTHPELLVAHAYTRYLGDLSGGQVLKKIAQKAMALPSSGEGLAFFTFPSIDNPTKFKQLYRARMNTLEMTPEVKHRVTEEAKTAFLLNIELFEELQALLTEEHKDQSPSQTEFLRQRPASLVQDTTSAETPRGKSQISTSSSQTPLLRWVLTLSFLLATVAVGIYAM
Description: HO enzymatic activity in rat spleen microsomal fraction (CO formed from methemalbumin, gas chromatography). The class given is biochemical. The settings on record: rat spleen microsomes; average ± standard deviation of replicate experiments. How it is done: Incubations for HO activity analysis were done under conditions for which the rate of CO formation (pmol CO×min^−1×mg protein^−1) was linear with respect to time and microsomal protein concentration. Briefly, reaction mixtures (150 μL) consisting of 100 mM phosphate buffer (pH 7.4), 50 μM methemalbumin, and 1 mg/mL protein were pre-incubated with the inhibitors at final concentrations ranging from 0.1-100 μM for 10 minutes at 37° C. Reactions were initiated by adding NADPH at a final concentration of 1 mM and incubations were performed for an additional 15 minutes at 37° C.
Incubations for HO activity analysis were done under conditions for which the rate of CO formation (pmol CO/mg protein/minute) was linear with respect to time and microsomal protein concentration. […] Reactions were stopped by instantly freezing the reaction mixture on pulverized dry ice and CO formation was measured by gas chromatography using a TA 3000R Process Gas Analyzer (Trace Analytical/Ametek, Newark, Del., USA).
The values on the abscissa represent the decimal logarithm of the inhibitor's concentration (in μM), whereas the values of the activity on the ordinate are expressed as a percentage of the control experiments without inhibitor. […]

As usually defined, the IC50 is the concentration needed to halve the response being measured. Lower therefore signals greater potency. Turning to `COc1ccc(CCN2CCC(Nc3nc4ccccc4n3Cc3ccc(F)cc3)CC2)cc1` [Astemizole, reference compound], the concentration for half-maximal inhibition (IC50) was more than 100 µM.
